Laboratory results published in patent US9598359B2, “Sulfonates from natural oil metathesis” (priority 2010, dated 2017).

Conditions: 1200 cycles

## CCCCCCCCCCCC(=O)OC(CCCCCCCC(=O)OC)C(CC)S(=O)(=O)[O-].[Na+] (stereo not shown) [C12-37, C12 UME C12 FA (60:40) SLA]
  % coating removed, scrub: 2.36%
